Source: PubChem BioAssay AID1259275 (Sanger Institute, 2017)
Shown is a random part of 794 reagents tested. Of all reagents, 13 (1.6%) got an active call. 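Calls mark knock-downs lethal by themselves, not drug synergy; drugs went in a day after transfection, with DMSO as vehicle.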 Not all columns of the deposit are shown. Not given: the amount of reagent, the time to read-out.

- Purpose: 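Knock-downs that cut viability on their own or combined with BYL719, cetuximab or trametinib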 (primary screen)
- Cell system: COLO320HSR human colorectal cancer cells
- Knock-down reagent: siRNA pool against human genes
- Conditions: anchor drug added one day after transfection: BYL719 at 1 µM, cetuximab at 5 µg/ml or trametinib at 10 nM; DMSO as vehicle arm
- Read-out: 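Replicate-mean viability versus non-targeting pool control, robust z-score without drug, and per-drug synergy scores for BYL719 at 1 µM, cetuximab at 5 µg/ml and trametinib at 10 nM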
- Scale: robust z-score, siRNA alone: higher = more viable cells; strongly negative means essential
- Rule for the call: 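a gene is called essential when its robust z-score without drug falls below -3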
- Calls: active = essential (siRNA alone); inactive = no change (siRNA alone)

Target gene | robust z-score, siRNA alone | Call
DAPK2 | 0.593 | inactive
CSNK1A1 | -1.56 | inactive
TLK2 | 0.726 | inactive
PKIB | 0.726 | inactive
PKM | -2.44 | inactive
CERK | 0.726 | inactive
GNE | 0.726 | inactive
AMER1 | 0.726 | inactive
MAP2K2 | 0.726 | inactive
PIK3R3 | 0.402 | inactive
AKT1 | 0.0389 | inactive
MINK1 | -0.212 | inactive
PTGS1 | -0.165 | inactive
CLSPN | -0.236 | inactive
UCKL1 | -0.57 | inactive
MAP3K20 | 0.726 | inactive

Continued, starting with the last 5 of the part before.
Target gene | robust z-score, siRNA alone | Call
MINK1 | -0.212 | inactive
PTGS1 | -0.165 | inactive
CLSPN | -0.236 | inactive
UCKL1 | -0.57 | inactive
MAP3K20 | 0.726 | inactive
TP53 | 0.671 | inactive
FLT1 | 0.726 | inactive
CHD4 | -2.22 | inactive
SPEG | 0.726 | inactive
ATRX | 0.726 | inactive
TNIK | -0.873 | inactive
DNMT3A | -0.244 | inactive
CASP8 | 0.726 | inactive
DGKQ | -1.54 | inactive
CKB | -0.468 | inactive
TP53BP1 | 0.726 | inactive
RAF1 | 0.726 | inactive
GSK3B | -0.765 | inactive
ITPKA | 0.726 | inactive
MAP3K1 | 0.45 | inactive
CDKN2C | -0.7 | inactive
LMTK3 | -2.65 | inactive
DMPK | -1.53 | inactive
RFK | 0.726 | inactive
CDKN2D | -0.445 | inactive
VRK2 | -1.01 | inactive
ULK3 | 0.726 | inactive
CMPK1 | 0.726 | inactive
EGFR | -0.139 | inactive
BMPR2 | -0.963 | inactive
PDGFRA | -1.47 | inactive
MERTK | 0.726 | inactive
MARK2 | -0.134 | inactive
CSF1R | -0.979 | inactive
STK24 | 0.446 | inactive
PFKFB2 | -0.309 | inactive
BRDT | 0.16 | inactive
SIK1 | -1.64 | inactive
MAST4 | 0.726 | inactive
